# Reference: the supplement of paper PMC10032668
# By UniProt entry, the sequences of proteins in these tests, tags left out.
# GSPT2, Q8IYD1, UniProt Q8IYD1, whole entry: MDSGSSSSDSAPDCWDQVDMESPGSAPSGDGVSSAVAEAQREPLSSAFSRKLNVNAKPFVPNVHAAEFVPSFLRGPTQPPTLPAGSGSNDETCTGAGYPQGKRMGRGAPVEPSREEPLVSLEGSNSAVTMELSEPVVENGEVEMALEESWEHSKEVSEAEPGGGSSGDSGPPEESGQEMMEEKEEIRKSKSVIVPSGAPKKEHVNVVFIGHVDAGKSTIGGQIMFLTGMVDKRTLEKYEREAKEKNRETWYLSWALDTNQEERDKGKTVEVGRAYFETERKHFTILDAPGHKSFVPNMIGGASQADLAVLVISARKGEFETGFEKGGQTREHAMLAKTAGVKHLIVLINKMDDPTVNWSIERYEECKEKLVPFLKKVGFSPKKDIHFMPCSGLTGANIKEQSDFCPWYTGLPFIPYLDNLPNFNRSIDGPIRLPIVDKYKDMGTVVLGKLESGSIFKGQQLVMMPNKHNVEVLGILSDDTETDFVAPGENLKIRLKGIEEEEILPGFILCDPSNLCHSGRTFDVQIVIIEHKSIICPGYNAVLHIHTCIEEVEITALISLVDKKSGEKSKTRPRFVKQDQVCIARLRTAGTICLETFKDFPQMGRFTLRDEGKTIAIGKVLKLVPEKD
# Some of the results follow. Only hits are listed; about a third recur on repeated control peptides.
# What was measured:
# Experiment in all cases: PRISMA enrichment of interactor (LFQ) in peptide spot vs all other peptide spots (log2 fold change); higher = stronger / more specific binding of the interactor to the peptide
# AAAS, Q9NRG9 = molecular target: AAAS, Q9NRG9
# Protocol: (§1)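 PRISMA: 15-aa overlapping tiles (offset 8 aa) of 60 microproteins, plus SOS1/GLUT1 control peptides, were spot-synthesized on cellulose membranes in triplicate. Membranes were incubated with benzonase-treated HEK293T lysate, and bound proteins were identified by LC-MS/MS with LFQ. Enrichment is the log2 fold change of each protein in one spot versus all other spots. Only interactors passing the significance cutoff are listed.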
# AARS2, Q5JTZ9 = molecular target: AARS2, Q5JTZ9
# Protocol: as §1
# AQR, O60306 = molecular target: AQR, O60306
# Protocol: as §1
# ATG4B, Q9Y4P1 = molecular target: ATG4B, Q9Y4P1
# Protocol: as §1
# C7orf50, Q9BRJ6 = molecular target: C7orf50, Q9BRJ6
# Protocol: as §1
# CDK9, P50750 = molecular target: CDK9, P50750
# Protocol: as §1
# CHCHD2, Q9Y6H1 = molecular target: CHCHD2, Q9Y6H1
# Protocol: as §1
# CHCHD3, Q9NX63 = molecular target: CHCHD3, Q9NX63
# Protocol: as §1
# COPS2, P61201 = molecular target: COPS2, P61201
# Protocol: as §1
# DDX6, P26196 = molecular target: DDX6, P26196
# Protocol: as §1
# DLGAP5, Q15398 = molecular target: DLGAP5, Q15398
# Protocol: as §1
# DTYMK, P23919 = molecular target: DTYMK, P23919
# Protocol: as §1
# DYNC1H1, Q14204 = molecular target: DYNC1H1, Q14204
# Protocol: as §1
# DYNLRB1, Q9NP97 = molecular target: DYNLRB1, Q9NP97
# Protocol: as §1
# EIF2B5, Q13144 = molecular target: EIF2B5, Q13144
# Protocol: as §1
# EIF3F, O00303 = molecular target: EIF3F, O00303
# Protocol: as §1
# ELP2, Q6IA86 = molecular target: ELP2, Q6IA86
# Protocol: as §1
# FBXO45, P0C2W1 = molecular target: FBXO45, P0C2W1
# Protocol: as §1
# GEMIN5, Q8TEQ6 = molecular target: GEMIN5, Q8TEQ6
# Protocol: as §1
# GNL3, Q9BVP2 = molecular target: GNL3, Q9BVP2
# Protocol: as §1
# HUWE1, Q7Z6Z7 = molecular target: HUWE1, Q7Z6Z7
# Protocol: as §1
# MRPL39, Q9NYK5 = molecular target: MRPL39, Q9NYK5
# Protocol: as §1
# MRPL58, Q14197 = molecular target: MRPL58, Q14197
# Protocol: as §1
# NCAPD3, P42695 = molecular target: NCAPD3, P42695
# Protocol: as §1
# NDUFB5, O43674 = molecular target: NDUFB5, O43674
# Protocol: as §1
# NPM3, O75607 = molecular target: NPM3, O75607
# Protocol: as §1
# NUP88, Q99567 = molecular target: NUP88, Q99567
# Protocol: as §1
# ODF2, Q5BJF6 = molecular target: ODF2, Q5BJF6
# Protocol: as §1
# [1] = substrate: PC, P11498
# Protocol: as §1
# PDS5B, Q9NTI5 = molecular target: PDS5B, Q9NTI5
# Protocol: as §1
# PGK1, P00558 = molecular target: PGK1, P00558
# Protocol: as §1
# PRDX5, P30044 = molecular target: PRDX5, P30044
# Protocol: as §1
# PSMD8, P48556 = molecular target: PSMD8, P48556
# Protocol: as §1
# RAB3GAP2, Q9H2M9 = molecular target: RAB3GAP2, Q9H2M9
# Protocol: as §1
# RRP9, O43818 = molecular target: RRP9, O43818
# Protocol: as §1
# SASS6, Q6UVJ0 = molecular target: SASS6, Q6UVJ0
# Protocol: as §1
# SDE2, Q6IQ49 = molecular target: SDE2, Q6IQ49
# Protocol: as §1
# SMARCA4, P51532 = molecular target: SMARCA4, P51532
# Protocol: as §1
# TFB2M, Q9H5Q4 = molecular target: TFB2M, Q9H5Q4
# Protocol: as §1
# UMPS, P11172 = molecular target: UMPS, P11172
# Protocol: as §1
# UPF1, Q92900 = molecular target: UPF1, Q92900
# Protocol: as §1
# URB1, O60287 = molecular target: URB1, O60287
# Protocol: as §1
# YY1, P25490 = molecular target: YY1, P25490
# Protocol: as §1
# ZNF771, Q7L3S4 = molecular target: ZNF771, Q7L3S4
# Protocol: as §1
# hCG_1984214 = molecular target: hCG_1984214
# Protocol: as §1
# AAMDC, Q9H7C9 = molecular target: AAMDC, Q9H7C9
# Protocol: as §1
# AK4, P27144 = molecular target: AK4, P27144
# Protocol: as §1
# CIZ1, Q9ULV3 = molecular target: CIZ1, Q9ULV3
# Protocol: as §1
# CNOT3, O75175 = molecular target: CNOT3, O75175
# Protocol: as §1
# DCAF13, Q9NV06 = molecular target: DCAF13, Q9NV06
# Protocol: as §1
# DCTN2, Q13561 = molecular target: DCTN2, Q13561
# Protocol: as §1
# DDX49, Q9Y6V7 = molecular target: DDX49, Q9Y6V7
# Protocol: as §1
# GEMIN2, O14893 = molecular target: GEMIN2, O14893
# Protocol: as §1
# PACSIN2, Q9UNF0 = molecular target: PACSIN2, Q9UNF0
# Protocol: as §1
# RBM25, P49756 = molecular target: RBM25, P49756
# Protocol: as §1
# RFC2, P35250 = molecular target: RFC2, P35250
# Protocol: as §1
# SAAL1, Q96ER3 = molecular target: SAAL1, Q96ER3
# Protocol: as §1
# SDAD1, Q9NVU7 = molecular target: SDAD1, Q9NVU7
# Protocol: as §1
# SEPTIN7, Q16181 = molecular target: SEPTIN7, Q16181
# Protocol: as §1
# C11orf58, O00193 = molecular target: C11orf58, O00193
# Protocol: as §1
# DBNL, Q9UJU6 = molecular target: DBNL, Q9UJU6
# Protocol: as §1
# EP300, Q09472 = molecular target: EP300, Q09472
# Protocol: as §1
# GSPT2, Q8IYD1 = molecular target: GSPT2, Q8IYD1
# Protocol: as §1
# IST1, P53990 = molecular target: IST1, P53990
# Protocol: as §1
# MRPS15, P82914 = molecular target: MRPS15, P82914
# Protocol: as §1
# MYO6, Q9UM54 = molecular target: MYO6, Q9UM54
# Protocol: as §1
# PARK7, Q99497 = molecular target: PARK7, Q99497
# Protocol: as §1
# PJA2, O43164 = molecular target: PJA2, O43164
# Protocol: as §1
# PPIL1, Q9Y3C6 = molecular target: PPIL1, Q9Y3C6
# Protocol: as §1
# PRKAA2, P54646 = molecular target: PRKAA2, P54646
# Protocol: as §1
# RBM38, Q9H0Z9 = molecular target: RBM38, Q9H0Z9
# Protocol: as §1
# SF3B4, Q15427 = molecular target: SF3B4, Q15427
# Protocol: as §1
# STAT3, P40763 = molecular target: STAT3, P40763
# Protocol: as §1
# ZC2HC1A, Q96GY0 = molecular target: ZC2HC1A, Q96GY0
# Protocol: as §1
binder,measurement,setting,value
MAPWSREAVLSLYRA [MIEF-MP],PRISMA enrichment of interactor (log2),"AAAS, Q9NRG9",5
same,PRISMA enrichment of interactor (log2),"AARS2, Q5JTZ9",5.68
same,PRISMA enrichment of interactor (log2),"AQR, O60306",5.62
same,PRISMA enrichment of interactor (log2),"ATG4B, Q9Y4P1",5.06
same,PRISMA enrichment of interactor (log2),"C7orf50, Q9BRJ6",4
same,PRISMA enrichment of interactor (log2),"CDK9, P50750",4.44
same,PRISMA enrichment of interactor (log2),"CHCHD2, Q9Y6H1",5.12
same,PRISMA enrichment of interactor (log2),"CHCHD3, Q9NX63",4.52
same,PRISMA enrichment of interactor (log2),"COPS2, P61201",7.16
same,PRISMA enrichment of interactor (log2),"DDX6, P26196",5.28
same,PRISMA enrichment of interactor (log2),"DLGAP5, Q15398",4.45
same,PRISMA enrichment of interactor (log2),"DTYMK, P23919",4.78
same,PRISMA enrichment of interactor (log2),"DYNC1H1, Q14204",4.74
same,PRISMA enrichment of interactor (log2),"DYNLRB1, Q9NP97",5.42
same,PRISMA enrichment of interactor (log2),"EIF2B5, Q13144",4.49
same,PRISMA enrichment of interactor (log2),"EIF3F, O00303",4.9
same,PRISMA enrichment of interactor (log2),"ELP2, Q6IA86",3.97
same,PRISMA enrichment of interactor (log2),"FBXO45, P0C2W1",4.23
same,PRISMA enrichment of interactor (log2),"GEMIN5, Q8TEQ6",4.45
same,PRISMA enrichment of interactor (log2),"GNL3, Q9BVP2",5.05
same,PRISMA enrichment of interactor (log2),"HUWE1, Q7Z6Z7",4.57
same,PRISMA enrichment of interactor (log2),"MRPL39, Q9NYK5",5.31
same,PRISMA enrichment of interactor (log2),"MRPL58, Q14197",4.45
same,PRISMA enrichment of interactor (log2),"NCAPD3, P42695",4.58
same,PRISMA enrichment of interactor (log2),"NDUFB5, O43674",4.72
same,PRISMA enrichment of interactor (log2),"NPM3, O75607",3.84
same,PRISMA enrichment of interactor (log2),"NUP88, Q99567",4.85
same,PRISMA enrichment of interactor (log2),"ODF2, Q5BJF6",7.22
same,PRISMA enrichment of interactor (log2),[1],6.82
same,PRISMA enrichment of interactor (log2),"PDS5B, Q9NTI5",4.9
same,PRISMA enrichment of interactor (log2),"PGK1, P00558",3.99
same,PRISMA enrichment of interactor (log2),"PRDX5, P30044",4.41
same,PRISMA enrichment of interactor (log2),"PSMD8, P48556",9.59
same,PRISMA enrichment of interactor (log2),"RAB3GAP2, Q9H2M9",4.26
same,PRISMA enrichment of interactor (log2),"RRP9, O43818",5.39
same,PRISMA enrichment of interactor (log2),"SASS6, Q6UVJ0",4.53
same,PRISMA enrichment of interactor (log2),"SDE2, Q6IQ49",3.87
same,PRISMA enrichment of interactor (log2),"SMARCA4, P51532",4.8
same,PRISMA enrichment of interactor (log2),"TFB2M, Q9H5Q4",4.59
same,PRISMA enrichment of interactor (log2),"UMPS, P11172",5.69
same,PRISMA enrichment of interactor (log2),"UPF1, Q92900",4.19
same,PRISMA enrichment of interactor (log2),"URB1, O60287",6.23
same,PRISMA enrichment of interactor (log2),"YY1, P25490",6.62
same,PRISMA enrichment of interactor (log2),"ZNF771, Q7L3S4",4.92
same,PRISMA enrichment of interactor (log2),hCG_1984214,4.16
QGTTCEMKDLRCCIG [LINC00881],PRISMA enrichment of interactor (log2),"AAMDC, Q9H7C9",4
same,PRISMA enrichment of interactor (log2),"AK4, P27144",4.78
same,PRISMA enrichment of interactor (log2),"CIZ1, Q9ULV3",5.82
same,PRISMA enrichment of interactor (log2),"CNOT3, O75175",4.75
same,PRISMA enrichment of interactor (log2),"DCAF13, Q9NV06",3.94
same,PRISMA enrichment of interactor (log2),"DCTN2, Q13561",4.7
same,PRISMA enrichment of interactor (log2),"DDX49, Q9Y6V7",5.64
same,PRISMA enrichment of interactor (log2),"GEMIN2, O14893",5.35
same,PRISMA enrichment of interactor (log2),"PACSIN2, Q9UNF0",5.17
same,PRISMA enrichment of interactor (log2),"RBM25, P49756",5.38
same,PRISMA enrichment of interactor (log2),"RFC2, P35250",4.77
same,PRISMA enrichment of interactor (log2),"SAAL1, Q96ER3",4.69
same,PRISMA enrichment of interactor (log2),"SDAD1, Q9NVU7",5.25
same,PRISMA enrichment of interactor (log2),"SEPTIN7, Q16181",4.44
FLAERMLAVPVTCGD [PVT1],PRISMA enrichment of interactor (log2),"AAMDC, Q9H7C9",4.94
same,PRISMA enrichment of interactor (log2),"C11orf58, O00193",5.79
same,PRISMA enrichment of interactor (log2),"DBNL, Q9UJU6",4.43
same,PRISMA enrichment of interactor (log2),"EP300, Q09472",6.74
same,PRISMA enrichment of interactor (log2),"GSPT2, Q8IYD1",4.82
same,PRISMA enrichment of interactor (log2),"IST1, P53990",4.93
same,PRISMA enrichment of interactor (log2),"MRPS15, P82914",6.72
same,PRISMA enrichment of interactor (log2),"MYO6, Q9UM54",4.46
same,PRISMA enrichment of interactor (log2),"PARK7, Q99497",7.34
same,PRISMA enrichment of interactor (log2),"PJA2, O43164",4.87
same,PRISMA enrichment of interactor (log2),"PPIL1, Q9Y3C6",4.97
same,PRISMA enrichment of interactor (log2),"PRKAA2, P54646",13
same,PRISMA enrichment of interactor (log2),"RBM38, Q9H0Z9",6.5
same,PRISMA enrichment of interactor (log2),"SASS6, Q6UVJ0",5.79
same,PRISMA enrichment of interactor (log2),"SF3B4, Q15427",5.86
same,PRISMA enrichment of interactor (log2),"STAT3, P40763",4.72
same,PRISMA enrichment of interactor (log2),"ZC2HC1A, Q96GY0",6.3

# Some of the entries so far, with tabs:
binder	measurement	setting	value
MAPWSREAVLSLYRA [MIEF-MP]	PRISMA enrichment of interactor (log2)	ZNF771, Q7L3S4	4.92
same	PRISMA enrichment of interactor (log2)	hCG_1984214	4.16
QGTTCEMKDLRCCIG [LINC00881]	PRISMA enrichment of interactor (log2)	AAMDC, Q9H7C9	4
same	PRISMA enrichment of interactor (log2)	AK4, P27144	4.78
same	PRISMA enrichment of interactor (log2)	CIZ1, Q9ULV3	5.82
same	PRISMA enrichment of interactor (log2)	CNOT3, O75175	4.75
